A short description of this assay: qHTS Assay for Lipid Storage Modulators in Drosophila S3 Cells.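 For cell number change: cells counted by Cell Tracker Red CMTPX staining in the red channel.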 The following applies: BODIPY lipid droplet fluorescence, 18-24 h; for cell number change: measured here: cell count max response, cells fed with added oleic acid. The method, boiled down: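 Drosophila S3 cells got compounds at several concentrations plus oleic acid (400 uM solution). Laser-scanning cytometry with 488 nm excitation read lipid droplets at 500-530 nm and cells at 575-640 nm. Percent activity was relative to 20 uM Triacsin C.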
(In general: In qHTS, concentration-response curves come from the screen itself.)

Setting [1] is: measured here: cell number channel AC50, cells fed with added oleic acid.
[2] abbreviates: measured here: lipid fluorescence (Fed channel) AC50, cells fed with added oleic acid.

The structures appear in SMILES notation. This is one part of the list. These are further read-outs of the screen, such as a control signal, another cell line or another target. No call is given for them. The list favours compounds with an active or inconclusive main result. Potencies come from curve fits of mixed quality, noted in brackets.

`O=C1c2cccc3cc([N+](=O)[O-])cc(c23)C(=O)N1CC1CCCO1` (stereo not drawn): the cell number change was -45.1%. The AC50 under setting [1] is 29.1 µM [falling, single point].
Turning to `CCN(CC)c1ccc(NC(=O)c2cncc(Br)c2)cc1`, the cell number change came out at 117%. In addition, under setting [1], the AC50 is 23.1 µM [rising, single point]. Besides, under setting [2], the half-maximal activity concentration (AC50) is 18.4 µM [rising, partial curve].
Take `O=C1CCCc2c1[nH]c1ccc(Br)cc21`: the cell number change was -53.7%. For the same compound, the AC50 under setting [1] was 13 µM [falling, partial curve]. In addition, the AC50 under setting [2] is 14.6 µM [falling, partial curve].
In the case of `CC(C)OCCCNC(=O)c1c(N)n(/N=C/c2cccs2)c2nc3ccccc3nc12`, the AC50 is 5.17 µM [falling, single point] under setting [1] and 2.91 µM [falling, full curve] under setting [2].
`CCn1c(SCC(=O)NC2=NCCS2)nnc1C(C)NC(=O)c1ccc(Cl)cc1` (stereo not drawn): the cell number change is 32.1%. The AC50 under setting [1] was 0.326 µM [rising, full curve, poor fit]. Also, under setting [2], the AC50 was 29.1 µM [falling, single point].
In the case of `N=C1c2ccccc2CN1NC(=O)c1cccc(S(=O)(=O)N2CCCCC2)c1`, the cell number change was -4.15%. Further, the concentration at half-maximal activity (AC50) under setting [1] was 4.61 µM [rising, partial curve, poor fit]. In addition, the AC50 under setting [2] is 6.51 µM [rising, single point].
`CCCCCn1c(=O)c(C(=O)OCC)c(Cl)c2ccccc21`: the cell number change turned out to be 24.1%. In addition, the AC50 under setting [2] is 11.6 µM [rising, partial curve, poor fit].
As for `O=C(NCCc1nc2ccccc2[nH]1)/C(=C/c1ccco1)NC(=O)c1ccccc1Br`, the cell number change amounted to 20.2%. In addition, the AC50 under setting [2] was 0.058 µM [rising, full curve, poor fit].
For `COc1ccc(-n2c(SCC(N)=O)nnc2-c2ccc(NS(=O)(=O)c3ccc(C)cc3)cc2)cc1`, the cell number change worked out at 37.5%. The AC50 under setting [1] is 29.1 µM [rising, single point]. Also, the AC50 under setting [2] was 0.0651 µM [rising, full curve, poor fit].
For the compound `CCOC(=O)C(C)Sc1nc(-c2ccccn2)ncc1OC` (stereo not drawn), the cell number change was -10.3%. The half-maximal activity concentration (AC50) under setting [1] is 1.03 µM [rising, full curve]. Under setting [2], the AC50 is 1.03 µM [rising, full curve].
Consider `CCOc1ccc(C(=O)c2cnc3ccccc3c2N2CCN(CC)CC2)cc1`, for which the cell number change turned out to be 15%. The AC50 under setting [1] is 0.326 µM [rising, full curve, poor fit].
On to `O=c1n(Cc2ccccc2)c2cc(Cl)cnc2n1Cc1ccccc1`, for which the concentration at half-maximal activity (AC50) under setting [2] was 29.1 µM [rising, single point].
On to `COc1ccc2cc(CCNC(=O)c3cccs3)c(=O)[nH]c2c1`, for which the half-maximal activity concentration (AC50) under setting [2] was 0.731 µM [falling, single point].
In the case of `CC(C)C(NS(=O)(=O)c1ccccc1F)C(=O)N1CCc2ccccc2C1` (stereo not drawn), the cell number change was determined as 5.65%. In addition, the AC50 under setting [2] is 6.51 µM [falling, partial curve, poor fit].
As to `COc1cc(OC)cc(C(=O)N[C@H](C(=O)Nc2nc3ccc(S(C)(=O)=O)cc3s2)C(C)C)c1`, the cell number change is 0.793%. The AC50 under setting [2] is 1.84 µM [rising, partial curve, poor fit].
Consider `CC1CN(C(=O)/C=C/c2ccccc2[N+](=O)[O-])CC(C)O1` (stereo not drawn), for which the cell number change came to 0.709%. Besides, the half-maximal activity concentration (AC50) under setting [2] is 0.58 µM [falling, single point].
For the compound `Cc1c(NC(=O)c2ccc(F)cc2)c(=O)n(-c2ccccc2)n1C`, the cell number change is 22.7%. For the same compound, the half-maximal activity concentration (AC50) under setting [2] is 0.0291 µM [rising, full curve].
In the case of `COc1ccc(C(C)=O)cc1CS(=O)(=O)CC(=O)NCCc1c[nH]c2ccccc12`, the cell number change is -8.77%. The AC50 under setting [2] was 2.31 µM [rising, partial curve, poor fit].
For `COC(=O)[C@]1(CC(C)C)N[C@H](c2ccc(-c3ccc(OC)cc3)cc2)[C@@H]2C(=O)N(C)C(=O)[C@@H]21`, the cell number change came out at 17.4%. Moreover, the AC50 under setting [2] was 29.1 µM [falling, single point].
`CCOC(=O)C1CCN(C(=O)c2cc3c(-c4ccc(OC)c(OC)c4)nn(C)c3s2)CC1`: the AC50 under setting [2] was 6.51 µM [falling, single point].
Regarding `CC(=O)n1cc(/C=C2/N=C(c3ccccc3)OC2=O)c2ccccc21`, the cell number change came to 14.8%.
In the case of `O=C1Nc2ccc(F)cc2C12Nc1ccccc1-c1nnc(SCc3ccccc3F)nc1O2` (stereo not drawn), the cell number change is -1.93%. Besides, under setting [1], the AC50 is 0.517 µM [rising, single point].
`Cc1nonc1NC(=O)CSc1nnc(N)s1`: the cell number change came out at 12.2%.
On to `Cc1cc(C)cc(NC(=O)CSc2nc(=O)n3cc(C)ccc3n2)c1`, for which the cell number change was determined as 22.2%. Moreover, the half-maximal activity concentration (AC50) under setting [1] was 0.092 µM [rising, full curve, poor fit]. For the same compound, the AC50 under setting [2] was 0.326 µM [rising, full curve].
In the case of `Cc1ccc(OCC(=O)Nc2sc3c(c2C#N)CCC3)cc1`, the cell number change was -32.2%. Moreover, the AC50 under setting [1] was 25.9 µM [falling, single point].
Turning to `O=C(COc1ccccc1)NCC(=O)NC1CCCCC1`, the cell number change was -20.4%. Further, the concentration at half-maximal activity (AC50) under setting [1] is 1.64 µM [rising, partial curve]. The half-maximal activity concentration (AC50) under setting [2] is 1.3 µM [rising, full curve].
With `O=C(CSc1nnc(CNC(=O)c2ccccc2)o1)Nc1ccc2c(c1)OCCO2`, the cell number change was 24.3%. Further, under setting [2], the concentration at half-maximal activity (AC50) is 29.1 µM [rising, single point].
For the compound `Cc1nc2ccc([N+](=O)[O-])cc2[nH]1`, the cell number change was -43.8%. Also, the half-maximal activity concentration (AC50) under setting [1] was 25.9 µM [falling, single point].
As to `Cc1ccc(Sc2nnc(Cc3ccccc3)c3ccccc23)cc1`, the half-maximal activity concentration (AC50) under setting [1] was 6.51 µM [rising, single point].
On to `COC(=O)CC1(c2ccccc2)C(=O)c2ccccc2C1=O`, for which the cell number change is -95%. Further, under setting [1], the concentration at half-maximal activity (AC50) was 0.103 µM [falling, full curve, poor fit]. For the same compound, the concentration at half-maximal activity (AC50) under setting [2] is 0.326 µM [falling, partial curve, poor fit].
As for `CCOC(=O)c1c(-c2ccc(C)cc2C)csc1NC(=O)CSc1nnnn1C`, the cell number change turned out to be 5.81%. Besides, the AC50 under setting [1] is 2.06 µM [rising, partial curve]. Moreover, the AC50 under setting [2] was 4.61 µM [falling, full curve, poor fit].
`Cn1c(=O)oc2cc(S(=O)(=O)N3CCCC(C(=O)Nc4ccc5c(c4)OCCO5)C3)ccc21` (stereo not drawn): the cell number change is 9.71%.
`CC(C)[C@H](NC(=O)N1CCn2c1nc1ccccc12)C(=O)N[C@@H](C(=O)O)c1ccccc1`: the cell number change came to 31.7%. Also, the AC50 under setting [1] was 25.9 µM [rising, partial curve, poor fit].
Regarding `Cc1nc(NCCc2ccc(S(N)(=O)=O)cc2)c2c(C)c(C)sc2n1`, the cell number change was -3.33%. In addition, the AC50 under setting [1] was 0.461 µM [rising, partial curve, poor fit].
With `COc1cccc(/C=N/N2C(=O)CSC2=S)c1O`, the half-maximal activity concentration (AC50) is 1.16 µM [rising, full curve] under setting [1] and 32.6 µM [rising, single point] under setting [2].
As to `Cc1ccc(OCCC(=O)Nc2ccccc2C(=O)N2CCCCC2)cc1`, the cell number change was 26.5%.
The same measure, in the same setting: for `Nn1c(COc2ccccc2F)nnc1SCC(=O)NC1CC1` the value was -3.5%.
Consider `COc1ccc(OCC(=O)NC(=S)Nc2ccc3c4c(cccc24)CC3)cc1`, for which, under setting [2], the AC50 was 0.291 µM [rising, partial curve].
Consider `CC(Sc1nnnn1C)C(=O)Nc1ccc(Oc2ccccc2)cc1` (stereo not drawn), for which the cell number change amounted to 0.553%. Also, the AC50 under setting [2] was 29.1 µM [falling, single point].
Consider `CC(C)Cn1c(-c2csc(C(C)C)c2)n[nH]c1=S`, for which the cell number change is -21.5%. For the same compound, the concentration at half-maximal activity (AC50) under setting [2] was 29.1 µM [falling, single point].
As to `COc1ccc(N(CC(=O)NCC2CCCO2)C(=O)CCC(=O)Nc2cc(C)on2)cc1OC` (stereo not drawn), the cell number change was -12.4%. Also, the AC50 under setting [2] was 5.8 µM [falling, partial curve, poor fit].
In the case of `Cc1ccc(C2N3CC4([N+](=O)[O-])CN2CC([N+](=O)[O-])(C3)C4(C)C)cc1` (stereo not drawn), the cell number change worked out at 11.6%. Under setting [2], the concentration at half-maximal activity (AC50) was 0.259 µM [rising, full curve, poor fit].
Consider `COc1ccc(NC(=O)CCNS(=O)(=O)c2cccc3nsnc23)cc1OC`, for which the cell number change was determined as 10%. For the same compound, under setting [2], the concentration at half-maximal activity (AC50) was 7.31 µM [rising, full curve, poor fit].
`CC(NCc1ccco1)C(=O)N1CCc2ccccc2C1` (stereo not drawn): the cell number change was -11.3%. For the same compound, under setting [2], the concentration at half-maximal activity (AC50) is 0.731 µM [falling, single point].
As to `CCN1CCN(S(=O)(=O)c2cc(OC)c(Cl)cc2OC)CC1`, the cell number change worked out at 4.28%. Also, the concentration at half-maximal activity (AC50) under setting [2] is 29.1 µM [falling, single point].
In the case of `O=c1oc(-c2ccccc2[N+](=O)[O-])nc2ccccc12`, the cell number change was -66%. Besides, the AC50 under setting [1] is 29.1 µM [falling, single point]. Under setting [2], the half-maximal activity concentration (AC50) was 29.1 µM [falling, single point].
`COc1ccc(CN(CC(=O)NCc2ccccc2)C(=O)CCC(=O)Nc2nccs2)cc1`: the cell number change is 114%. The AC50 under setting [1] is 29.1 µM [rising, single point].
On to `CC1CCCCN1S(=O)(=O)c1ccc(C(=O)Nc2nnc(-c3ccccc3Cl)o2)cc1` (stereo not drawn), for which the cell number change was determined as 17.4%. Further, the AC50 under setting [2] was 1.46 µM [rising, partial curve].
For `CCOC(=O)C(C)(C)Sc1nc2c(cnn2-c2ccc(Cl)cc2)c(=O)[nH]1`, the cell number change was -41.7%. Besides, the AC50 under setting [1] is 10.3 µM [falling, partial curve, poor fit]. For the same compound, under setting [2], the concentration at half-maximal activity (AC50) is 29.1 µM [falling, single point].
`CCN(CC)S(=O)(=O)c1ccc2nc(SC)sc2c1`: the cell number change turned out to be 39%. The AC50 under setting [1] is 18.4 µM [rising, single point].
Regarding `C=CCc1cccc(/C=N/NC(=O)COc2ccc(-n3cnnn3)cc2)c1O`, the concentration at half-maximal activity (AC50) under setting [2] was 0.116 µM [falling, single point].
With `CC(=O)c1ccc(NC(=O)CCc2nnc3ccc(N4CCC5(CC4)OCCO5)nn23)cc1`, the cell number change is 17.6%. Also, the half-maximal activity concentration (AC50) under setting [1] was 0.058 µM [rising, full curve, poor fit]. The half-maximal activity concentration (AC50) under setting [2] is 23.1 µM [rising, single point].
As for `C=CCOc1ccc(/C=N/NC(=O)C(=O)N2CCCCCC2)cc1OC`, the cell number change worked out at 8.73%.
For `O=[N+]([O-])c1cccc(S(=O)(=O)Nc2ccc(-c3ccc(N4CCCC4)nn3)cc2)c1`, the cell number change came to 21.7%. Also, the half-maximal activity concentration (AC50) under setting [2] is 23.1 µM [rising, single point].
Regarding `COc1ccc(C(=O)NCc2nnc(SCC(=O)c3ccccc3)o2)cc1`, the cell number change was found to be 25.5%. Also, the AC50 under setting [2] is 18.4 µM [rising, partial curve].
Turning to `COc1ccc(S(=O)(=O)N(C)C)cc1NCC(=O)Nc1ccc(Br)c(C)c1`, the cell number change came out at 26.3%. Besides, the half-maximal activity concentration (AC50) under setting [1] was 1.3 µM [rising, full curve, poor fit].

As usually defined, the AC50 is the concentration giving half of the maximal activity seen. Low readings indicate activity at low concentration, high ones activity only at high concentration.

Source of the values: PubChem BioAssay AID2685 (National Center for Advancing Translational Sciences (NCATS), 2010).
